The values that follow come from article PMC7988496, “Sphingomyelin synthase-related protein generates diacylglycerol via the hydrolysis of glycerophospholipids in the absence of ceramide” (The Journal of Biological Chemistry, 2021).

In this test the target is 6× His-SMSr-ΔSAMD (human sphingomyelin synthase-related protein lacking the sterile α motif domain) (human) (UniProt Q96LT4). As to the kind of experiment: SEC; ENrich SEC 650 column after Ni-affinity chromatography; 20 mM Tris-HCl (pH 7.4), 200 mM NaCl, 5% glycerol, 0.5 mM dithiothreitol, 0.018% NP-40; calibrated with ferritin, catalase, bovine serum albumin, ovalbumin and carbonic anhydrase; both purified. In general terms: Size exclusion chromatography separates by hydrodynamic size, large species first.

Results are given in words; binding and its absence hold for the method and conditions named. Sequences can lack the tags named with a protein.

B1: 6× His-SMSr-ΔSAMD (human sphingomyelin synthase-related protein lacking the sterile α motif domain) (domain or fragment, UniProt Q96LT4 79-413)
chain: HIDVLEEMGYNSDSPMGSMTPFISALQSTDWLCNGELSHDCDGPITDLNSDQYQYMNGKNKHSVRRLDPEYWKTILSCIYVFIVFGFTSFIMVIVHERVPDMQTYPPLPDIFLDSVPRIPWAFAMTEVCGMILCYIWLLVLLLHKHRSILLRRLCSLMGTVFLLRCFTMFVTSLSVPGQHLQCTGKIYGSVWEKLHRAFAIWSGFGMTLTGVHTCGDYMFSGHTVVLTMLNFFVTEYTPRSWNFLHTLSWVLNLFGIFFILAAHEHYSIDVFIAFYITTRLFLYYHTLANTRAYQQSRRARIWFPMFSFFECNVNGTVPNEYCWPFSKPAIMKRL
For B1, the binding result is listed as “no binding”.
